Source: PubChem BioAssay AID504791 (Drosophila RNAi Screening Center, 2011)
The deposit covers about 23,000 reagents; below is a random part of those that have a named target and a result. Of all reagents, 199 (0.86%) were called active. 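Plate-scaled ratios behind the calls are not deposited; printed light signals are raw; many rows marked increased or decreased are still called inactive.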 Names joined by + are all predicted targets of the reagent.

Assay: 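Genes of the fly required for silencing by miRNA, siRNA or endo-siRNA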 (primary screen)
Cells: Drosophila S2-derived reporter cells
Reagent: long dsRNA against Drosophila genes, about 150-250 ng dsRNA per well (siRNA assay); about 80-120 ng (miRNA assay)
Duration: about 5 days (siRNA assay); about 4 days (miRNA assay)
Treatment: copper sulfate induction of reporters: 25 µM (siRNA assay); 200 mM stated (miRNA assay), 1-2 days before reading
Measured: 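Dual luciferase assay: Renilla to firefly signal ratio in each well, scaled to the mean ratio of its plate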
Direction: siRNA reporter hit score: higher = 3 marks a strong hit with raised ratio; -3 a strong hit with lowered ratio
Hit rule: 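a well was a first-pass pick when its plate-scaled ratio rose above 1.5 (siRNA assay) or 1.6 (miRNA assay), or dropped below 0.6; a gene counted only if two separate dsRNAs agreed on retest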

no.	gene	PubChem SID	siRNA reporter hit score	stable siRNA reporter change	miRNA reporter change	stable assay Renilla, run 1 (luminescence)	stable assay firefly, run 1 (luminescence)	activity call
1	CG31463	SID104194138				6910	4.14e5	inactive
2	Vps13	SID104186609				6522	2.48e5	inactive
3	LRP1	SID104187030				6587	3.62e5	inactive
4	CG17996 + Tsen2	SID104182442				7040	5.32e5	inactive
5	betaggt-I	SID104183286				7688	5.08e5	inactive
6	l(2)dtl	SID104184489		reporter ratio lowered past the hit cutoff		7807	9.75e5	inactive
7	AstC-R1	SID104190591				7742	4.73e5	inactive
8	Boot	SID104186204				6464	3.32e5	inactive
9	CG13492	SID104183929				6566	3.10e5	inactive
10	CG42712 (retired record)	SID104180830				4383	4.28e5	inactive
11	Asx	SID104185716		reporter ratio raised past the hit cutoff		6071	1.95e5	inactive
12	dl	SID104183312			reporter ratio raised past the hit cutoff	49494	2.20e6	inactive
13	dl	SID104183313				7918	4.09e5	inactive
14	CG15233	SID104184759				13523	1.45e6	inactive
15	Chc	SID104200021				8283	4.15e5	inactive
16	CG34007	SID104181582				4935	2.82e5	inactive
17	CG9932	SID104183067				6219	3.59e5	inactive
18	Dnaaf4	SID104182197				6466	3.48e5	inactive
19	mtsh	SID104182862				7206	3.51e5	inactive
20	CG33093	SID104195567				4583	3.99e5	inactive
21	CG5013	SID104195487				6902	3.37e5	inactive
22	CG15249	SID104197770				4627	3.16e5	inactive
23	CG5986	SID104195723				11866	3.82e5	inactive
24	Ufsp1	SID104184750				4447	4.42e5	inactive
25	tyf	SID104198174				4995	2.43e5	inactive
26	Acp95EF	SID104193894				7475	4.34e5	inactive
27	dnt	SID104183314				3.63e5	1.22e6	inactive
28	CG31145	SID104193426				5388	3.20e5	inactive
29	CG31145	SID104193998				6327	4.57e5	inactive
30	CG31145	SID104194462				4864	2.67e5	inactive
31	CG31145	SID104194463	-3			5496	3.45e5	inactive
32	CG7430	SID104190637				7539	3.08e5	inactive
33	CG15317	SID104197797				6827	5.22e5	inactive
34	Pif1	SID104180374				18692	2.08e5	inactive
35	Gr22c	SID104201654				8739	4.38e5	inactive
36	Ugt37A2	SID104195653				6843	4.01e5	inactive
37	sut4	SID104187495				8047	4.09e5	inactive
38	CG32407	SID104189581				6355	4.70e5	inactive
39	SCAP	SID104184661				7139	3.58e5	inactive
40	SCAP	SID104184699				7435	3.87e5	inactive
41	pros	SID104192648				5739	5.97e5	inactive
42	pros	SID104196824				8150	4.80e5	inactive
43	pros	SID104202026				2868	2.19e5	inactive
44	CG42557 + CG42558	SID104193755				6399	4.58e5	inactive
45	CG42557 + CG42558	SID104196121				8559	3.80e5	inactive
46	stnB + stnA	SID104200761				5826	5.21e5	inactive
47	stnB + stnA	SID104200904				4424	3.44e5	inactive
48	stnB + stnA	SID104200905				4930	2.97e5	inactive
49	CG4271	SID104180441				8779	6.02e5	inactive
50	CG13989	SID104182113				6943	4.46e5	inactive
51	orion	SID104198005				5279	3.02e5	inactive
52	orion	SID104198006				5495	3.02e5	inactive
53	Obp99a	SID104195095				7782	5.17e5	inactive
54	PpV	SID104198492				6194	3.23e5	inactive
55	PpV	SID104202664				3915	2.80e5	inactive
56	CG16704	SID104180267				6884	3.31e5	inactive
57	Bx42	SID104197535				7867	4.79e5	inactive
58	Bx42	SID104206210			reporter ratio lowered past the hit cutoff			active

8 of these entries, reformatted.
{"gene":"CG42557 + CG42558","PubChem SID":"SID104193755","stable assay Renilla, run 1 (luminescence)":6399,"stable assay firefly, run 1 (luminescence)":4.58e5,"activity call":"inactive"}
{"gene":"CG42557 + CG42558","PubChem SID":"SID104196121","stable assay Renilla, run 1 (luminescence)":8559,"stable assay firefly, run 1 (luminescence)":3.80e5,"activity call":"inactive"}
{"gene":"stnB + stnA","PubChem SID":"SID104200761","stable assay Renilla, run 1 (luminescence)":5826,"stable assay firefly, run 1 (luminescence)":5.21e5,"activity call":"inactive"}
{"gene":"stnB + stnA","PubChem SID":"SID104200904","stable assay Renilla, run 1 (luminescence)":4424,"stable assay firefly, run 1 (luminescence)":3.44e5,"activity call":"inactive"}
{"gene":"stnB + stnA","PubChem SID":"SID104200905","stable assay Renilla, run 1 (luminescence)":4930,"stable assay firefly, run 1 (luminescence)":2.97e5,"activity call":"inactive"}
{"gene":"CG4271","PubChem SID":"SID104180441","stable assay Renilla, run 1 (luminescence)":8779,"stable assay firefly, run 1 (luminescence)":6.02e5,"activity call":"inactive"}
{"gene":"CG13989","PubChem SID":"SID104182113","stable assay Renilla, run 1 (luminescence)":6943,"stable assay firefly, run 1 (luminescence)":4.46e5,"activity call":"inactive"}
{"gene":"orion","PubChem SID":"SID104198005","stable assay Renilla, run 1 (luminescence)":5279,"stable assay firefly, run 1 (luminescence)":3.02e5,"activity call":"inactive"}
